According to PubChem BioAssay AID2685 (National Center for Advancing Translational Sciences (NCATS), 2010):
In all, about 320,000 compounds went through this assay and about 2,100 (0.66%) were called active. Inconclusive results, whose numbers are uncertain, are shown with a selection of clear calls. Calls come from the whole dose curve; as a rule, active = well fitted inhibition curve with a large enough effect in the signal ratio, with a control signal flat (not every such curve was filed as active); inconclusive = small, poorly fitted or top-dose-only effect, or effect the other way, or a change in a side signal; inactive = flat fitted curve, though single readings scatter; the % refers to the signal ratio. Potencies of inconclusive entries are doubtful fits and often do not repeat.

Test: qHTS Assay for Lipid Storage Modulators in Drosophila S3 Cells
Settings: BODIPY lipid droplet fluorescence, 18-24 h, cells fed with added oleic acid; lipid storage change, negative = inhibition: at 46.1 µM (top of the series) unless noted
Procedure, shortened: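 Laser-scanning cytometry quantifies lipid droplet accumulation (500–530 nm total intensity; droplet/cell object ratio) in oleic acid-fed (400 uM added) Drosophila S3 cells treated with a concentration series. 20 uM Triacsin C defined 100% inhibition.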
% is set by controls: 0 for no effect and ±100 for the full control effect; potency is the fitted concentration of half-maximal effect.

SMILES	lipid storage change, negative = inhibition	Potency	outcome
COC(=O)[C@@H]1CC(O)CN1C(=O)C12CC3CC(CC(C3)C1)C2 (some centres undefined)	inconclusive: -16.9%	–	–
O=C1N=C(N2CCOCC2)S/C1=C1\C(=O)N(Cc2ccccc2)c2ccc(Br)cc21	inconclusive: -23.4%	–	–
CCOC(=O)C1CCCN(C(=O)c2ccccc2NC(C)=O)C1 (centres undefined)	inconclusive: -55.1%	–	–
CC1CCCN(C(=O)c2cc3ccccc3cc2O)C1 (centres undefined)	inconclusive: 22.1%	–	–
CC1CC(C)CN(C(=O)COC(=O)c2ccc[nH]c2=O)C1 (centres undefined)	inconclusive: 2.6%	–	–
Cc1noc(C)c1S(=O)(=O)N(CC(=O)N1CCCCCC1)c1ccc(C(C)C)cc1	–	inconclusive: 29.1 µM [falling, single point]	–
CC1CCCN(C(=O)c2ccc(S(=O)(=O)Nc3ccccc3Cl)cc2)C1 (centres undefined)	–	inconclusive: 13 µM [falling, partial curve, poor fit]	–
COC(=O)C1C2C=CC3(CN(C(C)c4ccc(OC)cc4)C(=O)C13)O2 (centres undefined)	–	active: 16.4 µM	–
N#C/C(=C\c1ccc([N+](=O)[O-])cc1)C(=O)NCCCn1ccnc1	–	inconclusive: 0.92 µM [falling, full curve]	–
O=C(COC(=O)/C=C/c1cccc(F)c1)Nc1ncccn1	inactive: -1.2%	–	–
Cn1c2c(c(=O)n(C)c1=O)C(c1cccc(F)c1)C(C#N)=C(N)O2 (centres undefined)	inconclusive: -13.5%	–	–
O=C(CN1C2=NCCN2c2ccccc21)c1ccc(Br)cc1	–	inconclusive: 11.6 µM [activator, partial curve]	–
CCOC(=O)C1=C(CN2CCN(C(=O)c3ccco3)CC2)NC(=O)NC1c1ccc(C)cc1 (centres undefined)	–	inconclusive: 6.51 µM [falling, single point]	–
COC(=O)c1ccccc1NC(=O)c1cnn2c(C(F)F)cc(C3CC3)nc12	–	inconclusive: 0.58 µM [rising, single point]	–
CCOC(=O)CN1C(=O)NC2(CCCc3ccccc32)C1=O (centres undefined)	–	inconclusive: 0.58 µM [falling, single point]	–
CCOc1ccc(S(=O)(=O)NC2CCCC2)cc1	–	–	inactive [at 46.1 µM]
CC(C)C(c1nnnn1C1CCCC1)N1CCC(C(N)=O)CC1 (centres undefined)	inconclusive: -8.43%	–	–
O=S(=O)(c1ccc(F)cc1)N1CCN(CC(O)COCc2cccs2)CC1 (centres undefined)	–	inconclusive: 29.1 µM [activator, single point]	–
CN(C)C(=O)c1cc(C(=O)c2ccc(C(F)(F)F)cc2F)c[nH]1	inconclusive: 25.8%	–	–
CCC1CCCCN1CCCNC(=O)c1ccc2c(=O)n(Cc3ccc(OC)cc3)c(=O)[nH]c2c1 (centres undefined)	–	inconclusive: 16.4 µM [activator, partial curve, poor fit]	–
Oc1ccc(-c2sc(Nc3ccccc3)n[n+]2-c2ccc(F)cc2)cc1	inconclusive: 62.2%	–	–
Cc1ccccc1-n1cnnc1SCC(=O)Nc1cccnc1Cl	inconclusive: 8.85%	–	–
CCOc1ccccc1NC(=O)CCNS(=O)(=O)c1cccc2nonc12	–	inconclusive: 0.116 µM [activator, single point]	–
COC(=O)Cn1c(=O)c2c(nc(Br)n2CC(=O)OC)n(C)c1=O	inconclusive: 28.3%	–	–
Cc1cccc(NC(=O)Cn2cnc3ccccc3c2=O)c1C	inconclusive: 15%	–	–
Cc1ccc(-c2nnn(CC(=O)N(c3ccccc3)C(C(=O)NC3CCCC3)c3ccncc3)n2)o1 (centres undefined)	inconclusive: -91.4%	–	–
CC(NC(=S)NC1CCCCC1)C(c1cccs1)N1CCOCC1 (centres undefined)	inconclusive: -14.5%	–	–

SMILES	lipid storage change, negative = inhibition	Potency	outcome
CCOCC(=O)Nc1ccccc1C(=O)OCC	–	inconclusive: 32.6 µM [activator, single point]	–
CCCCn1c(N)c(N(CCC(C)C)C(=O)C2CCCC2)c(=O)[nH]c1=O	inconclusive: -3.36%	–	–
COc1ccccc1NC(=O)NC1(C(=O)N2CCN(C)CC2)CCCCC1	–	inconclusive: 29.1 µM [falling, single point]	–
O=C(COC(=O)c1ccc(O)cc1O)NC1CCCCCC1	–	inconclusive: 23.1 µM [falling, single point]	–
c1ccc(-c2nn3c(C4CCCCC4)nnc3s2)cc1	–	inconclusive: 6.51 µM [activator, partial curve, poor fit]	–
CN(C(=O)CSc1nnnn1-c1ccc(O)cc1)C1CCS(=O)(=O)C1 (centres undefined)	inconclusive: 5.76%	–	–
O=C(c1ccc(F)cc1)N1CCN=C1c1ccccc1	inconclusive: -24.5%	–	–
CCC(C)(C)NC(=O)CN(C(=O)c1snc(C(N)=O)c1N)c1ccc2c(c1)OCCO2	–	–	inactive [at 46.1 µM]
O=C(Cc1ccccc1)Nc1c(C(=O)N2CCOCC2)cnn1-c1ccccc1	–	inconclusive: 29.1 µM [falling, single point]	–
O=C(NNC(=O)c1ccccc1-c1ccccc1C(=O)O)c1cccc([N+](=O)[O-])c1	inconclusive: 0.903%	–	–
Cc1ccc(S(=O)(=O)NCCC(=O)Oc2ccc3ccc(=O)oc3c2)cc1	inconclusive: -14.7%	–	–
CC(OC(=O)Cc1ccc(Cl)cc1)C(=O)NC1CCCCC1C (centres undefined)	inconclusive	–	–
C=C(C)Cn1c(CCNC(=O)c2ccco2)nc2ccccc21	–	active: 0.517 µM	–
CCCCNC(=O)c1cn(CC(C)C)c(=O)c2c1c1ccccc1n2C	inconclusive: 31.3%	–	–
COc1ccc(NC(=O)NC2(C(=O)N3CCCC(C)C3)CCCCC2)cc1 (centres undefined)	inconclusive: 65.9%	–	–
CN1C(=O)CSC1=S	inconclusive: 16.8%	–	–
Cc1nn(CCCC(=O)NCCCN2CCN(C)CC2)c(=O)c2c1sc1ccccc12	inconclusive: 14.9%	–	–
CCOC(=O)c1[nH]c2cc3c(cc2c1NC(=O)CN1CC(C)CC(C)C1)OCO3 (centres undefined)	inconclusive: 15.1%	–	–
CC(C)N(C(=O)COC(=O)c1ccc(Cl)c(S(N)(=O)=O)c1)C(C)C	–	inconclusive: 32.6 µM [falling, single point]	–
COc1ccccc1-c1cc(C(=O)N/N=C\c2cn(C)nc2C)c2ccccc2n1	inconclusive: 21.9%	–	–
CN(CCO)c1ccc(-c2n[nH]c(=O)c3ccccc23)cc1[N+](=O)[O-]	inconclusive: -25.1%	–	–
O=C(CN1CCC(NC(=O)C2CC2)CC1)Nc1ccccc1[N+](=O)[O-]	–	inconclusive: 0.58 µM [activator, single point]	–
COc1ccc(/C=C(/NC(=O)c2ccc(OC)c(OC)c2)C(=O)NCCc2c[nH]c3ccccc23)cc1	inconclusive: 108%	–	–
CNc1c([N+](=O)[O-])cnn1-c1ccc(C)cc1	inconclusive: -12.8%	–	–
O=C(CS(=O)(=O)Cc1ccccc1)N1CCc2ccccc2C1	inconclusive: -2.2%	–	–
Cc1cc(=O)oc2cc(NC(=O)c3cccc(S(=O)(=O)N(C)C)c3)ccc12	inconclusive: -28.7%	–	–
Cc1nc2n[nH]c(N)c2c2c1COC(C)(C)C2	inconclusive: -7.68%	–	–

SMILES	lipid storage change, negative = inhibition	Potency	outcome
Cc1ccccc1C(=O)Nc1ccccc1-c1nnn(CC(=O)Nc2ccc3c(c2)OCCO3)n1	inconclusive: -18.8%	–	–
O=C(O)CCNS(=O)(=O)c1cccc(Br)c1	inconclusive: -9.79%	–	–
COC(=O)CC1COc2ccccc2N1C(=O)c1cc(OC)c(OC)c(OC)c1 (centres undefined)	inconclusive: 10.7%	–	–
CCCCNC(=O)Nc1cc(C(=O)OC)ccc1C	–	inconclusive: 0.82 µM [activator, full curve]	–
O=C(N/N=C1/CCSC1)c1cc(Br)ccc1O	inconclusive: 14.8%	–	–
O=C(NCCO)C1(c2ccc(Cl)cc2)CCCC1	–	active: 20.6 µM	–
CN(C)CCn1c(=O)n(-c2cccc(Cl)c2)c(=O)c2c3c(sc21)CCCCC3	inconclusive: -10.7%	–	–
Nc1ccc(N2CCCCC2)cc1N1CCCCC1	–	inconclusive: 29.1 µM [cytotoxic, single point]	–
Oc1ccc(/C=N/Nc2cccc(Cl)n2)c(O)c1	–	inconclusive: 32.6 µM [falling, single point]	–
Cc1nc(C(=O)NNC(=O)c2ccc(Cl)cc2)c(C(F)(F)F)o1	inconclusive: -5.21%	–	–
Cc1cc(C(=O)OCC(=O)NC(C)c2ccc(F)cc2)c(C)o1 (centres undefined)	–	inconclusive: 6.51 µM [falling, single point]	–
COC(=O)c1c(NC(=O)c2cccnc2Cl)sc(C(=O)N(C)C)c1C	inactive: 20.4%	–	–
OCCNC(=S)NCc1ccccc1	inconclusive: -12.9%	–	–
O=C(NCCCN1CCN(Cc2ccccc2)CC1)c1nnc(Cc2c(F)cccc2Cl)o1	inconclusive: 13.4%	–	–
CCO[C@@H]1OC(C(=O)Nc2ccccc2)=C[C@H](c2ccc3c(c2)OCO3)[C@H]1CCCO	inconclusive: -14%	–	–
COc1ccc(NC(=O)COC(=O)c2c(-c3ccccc3)noc2C)cc1	inconclusive: -25.1%	–	–
CCOC(=O)CC(=O)CSc1nc(C)cc(-c2cccnc2)c1C#N	inconclusive: 29.4%	–	–
O=C(COc1coc(CN2CCCc3ccccc32)cc1=O)Nc1ccccc1	inconclusive	–	–
COC(=O)c1ccccc1NC(=O)c1cc2nc(C3CC3)cc(C(F)(F)F)n2n1	inconclusive: -0.0379%	–	–
COCC(C)n1c(SCC(=O)NC(=O)Nc2ccc3c(c2)OCCO3)nc2ccccc2c1=O (centres undefined)	–	inconclusive: 0.326 µM [activator, single point]	–
COc1cc(OC)c(NS(=O)(=O)c2ccc(Cl)c(C(=O)OC(C)C(=O)N3CCCC3)c2)cc1Cl (centres undefined)	inconclusive: 10.6%	–	–
CCOc1cc([C@H]2[C@@H]3CCCC[C@]3(O)CCN2CC(=O)NCc2ccco2)ccc1O	inconclusive: 52.2%	–	–
COc1cccc(/C=C/C(=O)NNC(=O)c2ccco2)c1OC	inconclusive: 46.8%	–	–
COc1c(Cl)cnn(-c2cccc(C)c2)c1=O	inconclusive: 4.11%	–	–
O=C(c1cc(-c2cccnc2)nc2ccc(Cl)cc12)N1CCN(S(=O)(=O)c2cccs2)CC1	inconclusive: -11.8%	–	–

In the list so far, 3 contain a CF3 group.
SMILES	lipid storage change, negative = inhibition	Potency	outcome
CN(C)C(=O)c1cc(C(=O)c2ccc(C(F)(F)F)cc2F)c[nH]1	inconclusive: 25.8%	–	–
Cc1nc(C(=O)NNC(=O)c2ccc(Cl)cc2)c(C(F)(F)F)o1	inconclusive: -5.21%	–	–
COC(=O)c1ccccc1NC(=O)c1cc2nc(C3CC3)cc(C(F)(F)F)n2n1	inconclusive: -0.0379%	–	–
